The target of this experiment is Ack1, endogenous in mouse embryo fibroblasts (mouse (endogenous in MEFs)) (UniProt O54967). Put plainly: co-IP; endogenous proteins in lysates of MEF1KO, MEF2KO and MEF1&2KO cells, serum starved 24 h, EGF 10 ng/ml 10 mins, with or without LY294002 (10 µM, 1 h); IP with Ack1 antibodies, IB with pan-AKT antibodies; 25 mmol/L Tris pH 7.5, 225 mmol/L NaCl, 1% Triton X-100, 10% glycerol.

Chains of the proteins cited; added tags and fusions are not shown.
UniProt O54967: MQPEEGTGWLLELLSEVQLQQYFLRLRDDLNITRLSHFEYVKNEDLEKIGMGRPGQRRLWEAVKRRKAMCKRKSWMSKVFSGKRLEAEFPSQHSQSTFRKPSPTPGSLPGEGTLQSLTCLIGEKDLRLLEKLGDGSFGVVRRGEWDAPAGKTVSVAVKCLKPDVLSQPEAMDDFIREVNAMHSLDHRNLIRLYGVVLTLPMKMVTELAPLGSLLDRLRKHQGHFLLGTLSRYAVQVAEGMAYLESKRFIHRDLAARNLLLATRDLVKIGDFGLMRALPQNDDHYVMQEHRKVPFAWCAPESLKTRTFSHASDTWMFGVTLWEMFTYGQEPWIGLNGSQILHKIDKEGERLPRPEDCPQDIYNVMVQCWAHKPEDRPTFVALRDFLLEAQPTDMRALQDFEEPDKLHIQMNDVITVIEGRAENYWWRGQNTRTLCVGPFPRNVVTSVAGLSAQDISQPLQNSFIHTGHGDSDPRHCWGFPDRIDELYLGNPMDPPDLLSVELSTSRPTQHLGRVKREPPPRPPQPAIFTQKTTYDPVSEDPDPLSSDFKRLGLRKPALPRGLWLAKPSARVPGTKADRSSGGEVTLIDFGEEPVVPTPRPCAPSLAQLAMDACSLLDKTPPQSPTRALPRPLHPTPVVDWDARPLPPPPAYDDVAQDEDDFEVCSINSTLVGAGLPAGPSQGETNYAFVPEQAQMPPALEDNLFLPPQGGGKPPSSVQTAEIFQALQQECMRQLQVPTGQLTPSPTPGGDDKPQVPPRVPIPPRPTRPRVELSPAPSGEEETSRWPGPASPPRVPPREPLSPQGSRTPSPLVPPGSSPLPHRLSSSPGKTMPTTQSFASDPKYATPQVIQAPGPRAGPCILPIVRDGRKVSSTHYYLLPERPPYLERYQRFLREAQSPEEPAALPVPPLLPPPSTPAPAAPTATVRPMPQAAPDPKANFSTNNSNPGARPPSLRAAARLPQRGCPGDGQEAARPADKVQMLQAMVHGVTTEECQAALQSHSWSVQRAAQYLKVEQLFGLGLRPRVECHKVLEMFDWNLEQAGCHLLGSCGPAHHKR
UniProt Q9WUA6: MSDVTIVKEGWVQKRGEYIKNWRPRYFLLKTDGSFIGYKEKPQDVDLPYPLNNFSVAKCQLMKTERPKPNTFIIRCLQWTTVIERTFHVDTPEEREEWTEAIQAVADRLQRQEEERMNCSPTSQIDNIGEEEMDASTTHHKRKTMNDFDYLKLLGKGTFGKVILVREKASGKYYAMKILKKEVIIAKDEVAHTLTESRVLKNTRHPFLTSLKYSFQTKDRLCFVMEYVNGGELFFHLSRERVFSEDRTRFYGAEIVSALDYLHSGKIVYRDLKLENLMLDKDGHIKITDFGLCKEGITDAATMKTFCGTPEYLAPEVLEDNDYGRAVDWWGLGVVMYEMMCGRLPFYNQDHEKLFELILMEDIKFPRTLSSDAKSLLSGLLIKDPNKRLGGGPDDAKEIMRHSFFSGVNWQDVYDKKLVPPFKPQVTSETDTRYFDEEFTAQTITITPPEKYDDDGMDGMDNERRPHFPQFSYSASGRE
UniProt Q60823: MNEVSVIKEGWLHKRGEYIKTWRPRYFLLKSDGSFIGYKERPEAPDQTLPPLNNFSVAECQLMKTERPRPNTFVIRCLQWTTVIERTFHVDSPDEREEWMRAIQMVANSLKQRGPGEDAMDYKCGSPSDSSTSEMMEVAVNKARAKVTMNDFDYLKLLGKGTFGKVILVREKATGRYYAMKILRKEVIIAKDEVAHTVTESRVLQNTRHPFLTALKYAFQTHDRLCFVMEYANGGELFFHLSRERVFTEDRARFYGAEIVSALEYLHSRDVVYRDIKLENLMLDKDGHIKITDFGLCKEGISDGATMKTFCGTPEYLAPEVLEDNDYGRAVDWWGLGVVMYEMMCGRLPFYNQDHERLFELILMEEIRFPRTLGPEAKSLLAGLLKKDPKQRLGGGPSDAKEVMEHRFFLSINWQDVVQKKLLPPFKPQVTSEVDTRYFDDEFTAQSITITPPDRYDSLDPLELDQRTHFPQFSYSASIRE

Drawing on paper PMC2841635, this text covers binding for two substances.

These are yes or no findings as the source states them, for the method shown. Binding seen in cells or lysates may run through a third protein. Some entries that bind do so weakly or less than the wild type.

“Akt3, endogenous in MEF1&2KO cells (from UniProt Q9WUA6 1-479)”: the binding result was “no binding”.

For “Akt2, endogenous in mouse embryo fibroblasts (from UniProt Q60823 1-481)”, the binding entry was “binds weakly”.
